For assay [1], the target named is T1, FLAG-SH3BGRL3 (SH3 Domain Binding Glutamate Rich Protein Like 3), expressed in SKBR3 cells (human) (UniProt Q9H299).
T1 sequence: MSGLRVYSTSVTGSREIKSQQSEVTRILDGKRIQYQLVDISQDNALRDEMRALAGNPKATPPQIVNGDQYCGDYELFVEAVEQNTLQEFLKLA
Briefly: co-IP; SKBR3 cells transfected or co-transfected; lysate in EB buffer on anti-FLAG M2 Affinity gel resin overnight at 4 °C, 5 washes with EB buffer, elution with 10% SDS, western blot (anti-Myo1c, anti-ErbB2 or anti-HA). In general terms: Immunoblotting shows a protein as a band on a membrane.

Amino acid sequences for entries named in this document (tags omitted).
UniProt P17677: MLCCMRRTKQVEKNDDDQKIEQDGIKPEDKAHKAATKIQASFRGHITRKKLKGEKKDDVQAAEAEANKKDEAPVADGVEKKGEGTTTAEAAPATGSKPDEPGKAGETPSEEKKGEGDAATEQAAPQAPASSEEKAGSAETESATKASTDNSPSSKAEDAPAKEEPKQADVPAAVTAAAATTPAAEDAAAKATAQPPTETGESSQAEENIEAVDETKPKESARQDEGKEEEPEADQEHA

Assay [2] has as its target GST-GAP43 fusion protein (UniProt P17677). The assay is described as follows: pull-down; GST-GAP43 bound to Sepharose-Glutathione 4B, purified histidine-tagged SH3BGRL3, in presence of Ca2+ (EB buffer containing 1 mM CaCl2); western blot with anti-SH3BGRL3; both purified.
Assay [3] has the same target. The assay is described as follows: pull-down; GST-GAP43 bound to Sepharose-Glutathione 4B, purified histidine-tagged SH3BGRL3, in presence of EGTA (EB buffer containing 1 or 5 mM EGTA); western blot with anti-SH3BGRL3; both purified.

Results are given in words; binding and its absence hold for the method and conditions named. For part of these data: In cells and extracts the contact can be indirect. Some entries that bind do so weakly or less than the wild type. Where a sequence is shown, tags or fusion partners need not be part of it.

With “HA-tagged GAP43 (neuromodulin) (from UniProt P17677 1-238)”, in assay [1], the binding result is given as “binds”.

B1: histidine-tagged SH3BGRL3 (protein, UniProt Q9H299 1-93)
chain: T1 sequence
For the molecule B1, the binding result in assay [2] is given as “binds”; in assay [3], “no binding (condition: with 1 or 5 mM EGTA (no Ca2+))”.

These data come from article PMC8356473.
